# This is one part of the list.
# Protein sequences, listed by entry. Tags and fused reporters are not part of them. Lines headed by an entry give the natural chain unless they say otherwise; changes in a name come on top.
# UniProt P20073: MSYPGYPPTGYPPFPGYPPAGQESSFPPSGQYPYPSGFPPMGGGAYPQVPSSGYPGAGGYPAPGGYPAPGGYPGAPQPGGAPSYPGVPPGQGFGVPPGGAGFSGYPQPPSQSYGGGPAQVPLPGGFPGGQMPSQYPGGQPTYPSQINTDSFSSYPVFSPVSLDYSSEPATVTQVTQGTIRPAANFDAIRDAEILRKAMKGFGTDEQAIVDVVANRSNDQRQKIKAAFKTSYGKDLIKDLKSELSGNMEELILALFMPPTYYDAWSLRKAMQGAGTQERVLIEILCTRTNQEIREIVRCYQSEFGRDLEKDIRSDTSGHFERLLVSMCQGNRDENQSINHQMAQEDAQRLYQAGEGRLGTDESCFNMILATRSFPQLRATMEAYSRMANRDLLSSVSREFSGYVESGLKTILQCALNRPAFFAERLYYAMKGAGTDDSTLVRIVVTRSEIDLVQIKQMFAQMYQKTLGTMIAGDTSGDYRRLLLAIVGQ
# UniProt O94973, whole entry, looked up: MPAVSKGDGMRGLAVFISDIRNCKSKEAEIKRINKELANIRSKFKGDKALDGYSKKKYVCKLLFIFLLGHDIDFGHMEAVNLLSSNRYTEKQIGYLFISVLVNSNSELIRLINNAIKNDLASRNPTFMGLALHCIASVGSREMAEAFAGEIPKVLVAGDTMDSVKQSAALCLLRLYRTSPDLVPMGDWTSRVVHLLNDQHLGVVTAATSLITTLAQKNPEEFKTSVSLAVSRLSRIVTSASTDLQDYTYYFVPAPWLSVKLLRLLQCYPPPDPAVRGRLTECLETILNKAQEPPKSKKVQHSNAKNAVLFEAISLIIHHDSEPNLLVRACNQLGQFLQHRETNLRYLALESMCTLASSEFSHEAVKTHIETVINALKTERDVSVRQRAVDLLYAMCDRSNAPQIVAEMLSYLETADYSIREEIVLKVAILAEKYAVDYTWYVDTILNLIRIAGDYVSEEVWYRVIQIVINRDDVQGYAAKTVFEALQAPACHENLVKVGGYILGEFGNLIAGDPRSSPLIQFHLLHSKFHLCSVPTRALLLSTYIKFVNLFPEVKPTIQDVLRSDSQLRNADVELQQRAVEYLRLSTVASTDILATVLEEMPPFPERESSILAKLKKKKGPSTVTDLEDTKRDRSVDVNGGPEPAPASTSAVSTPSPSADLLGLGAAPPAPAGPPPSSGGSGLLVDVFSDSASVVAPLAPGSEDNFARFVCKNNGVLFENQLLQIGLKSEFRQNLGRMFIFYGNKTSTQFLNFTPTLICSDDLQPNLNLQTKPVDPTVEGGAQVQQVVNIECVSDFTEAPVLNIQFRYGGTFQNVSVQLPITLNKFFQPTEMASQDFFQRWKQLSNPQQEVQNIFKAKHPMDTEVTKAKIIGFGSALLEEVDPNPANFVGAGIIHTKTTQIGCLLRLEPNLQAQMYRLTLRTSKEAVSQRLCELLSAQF
# UniProt Q9NW15: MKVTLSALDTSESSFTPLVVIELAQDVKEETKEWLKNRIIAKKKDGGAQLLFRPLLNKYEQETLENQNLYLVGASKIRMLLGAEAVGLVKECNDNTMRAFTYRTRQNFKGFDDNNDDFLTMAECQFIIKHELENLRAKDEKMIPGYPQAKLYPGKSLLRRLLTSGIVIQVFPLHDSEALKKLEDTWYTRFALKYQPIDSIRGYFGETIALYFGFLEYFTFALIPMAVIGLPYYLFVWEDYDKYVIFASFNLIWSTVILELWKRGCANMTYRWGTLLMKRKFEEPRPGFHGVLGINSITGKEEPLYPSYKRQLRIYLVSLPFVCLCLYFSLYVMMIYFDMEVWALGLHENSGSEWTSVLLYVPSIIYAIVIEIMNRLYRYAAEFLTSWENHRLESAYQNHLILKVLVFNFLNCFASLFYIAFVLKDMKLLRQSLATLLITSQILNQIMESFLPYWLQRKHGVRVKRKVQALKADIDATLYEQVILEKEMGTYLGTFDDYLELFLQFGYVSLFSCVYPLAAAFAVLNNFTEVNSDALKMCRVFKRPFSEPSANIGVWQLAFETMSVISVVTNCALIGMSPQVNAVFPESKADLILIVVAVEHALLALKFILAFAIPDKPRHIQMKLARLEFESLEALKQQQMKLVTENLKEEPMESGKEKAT
# UniProt Q68EM7: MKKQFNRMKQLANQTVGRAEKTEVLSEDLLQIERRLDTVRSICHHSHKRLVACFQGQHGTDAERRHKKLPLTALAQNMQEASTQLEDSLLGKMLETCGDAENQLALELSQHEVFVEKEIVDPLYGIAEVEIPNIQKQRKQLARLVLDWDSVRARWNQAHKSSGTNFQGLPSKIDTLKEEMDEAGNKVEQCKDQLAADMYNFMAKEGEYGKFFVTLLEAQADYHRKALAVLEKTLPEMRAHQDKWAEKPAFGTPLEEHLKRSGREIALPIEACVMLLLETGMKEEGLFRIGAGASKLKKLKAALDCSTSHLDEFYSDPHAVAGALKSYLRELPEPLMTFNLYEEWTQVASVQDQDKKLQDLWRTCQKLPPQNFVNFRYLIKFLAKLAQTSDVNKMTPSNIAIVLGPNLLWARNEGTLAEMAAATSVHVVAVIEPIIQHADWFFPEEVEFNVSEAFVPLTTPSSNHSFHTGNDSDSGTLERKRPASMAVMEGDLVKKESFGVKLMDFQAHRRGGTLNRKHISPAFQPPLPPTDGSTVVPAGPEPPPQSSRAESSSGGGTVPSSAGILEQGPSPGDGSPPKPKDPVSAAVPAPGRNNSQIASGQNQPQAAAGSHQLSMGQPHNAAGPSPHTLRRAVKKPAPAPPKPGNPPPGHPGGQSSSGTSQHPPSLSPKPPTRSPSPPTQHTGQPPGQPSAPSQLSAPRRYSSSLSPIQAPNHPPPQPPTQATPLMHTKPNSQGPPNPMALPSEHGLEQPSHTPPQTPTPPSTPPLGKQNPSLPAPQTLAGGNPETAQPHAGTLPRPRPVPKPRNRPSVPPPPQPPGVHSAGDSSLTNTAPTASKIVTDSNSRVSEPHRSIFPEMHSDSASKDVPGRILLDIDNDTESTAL
# UniProt Q9BZZ5: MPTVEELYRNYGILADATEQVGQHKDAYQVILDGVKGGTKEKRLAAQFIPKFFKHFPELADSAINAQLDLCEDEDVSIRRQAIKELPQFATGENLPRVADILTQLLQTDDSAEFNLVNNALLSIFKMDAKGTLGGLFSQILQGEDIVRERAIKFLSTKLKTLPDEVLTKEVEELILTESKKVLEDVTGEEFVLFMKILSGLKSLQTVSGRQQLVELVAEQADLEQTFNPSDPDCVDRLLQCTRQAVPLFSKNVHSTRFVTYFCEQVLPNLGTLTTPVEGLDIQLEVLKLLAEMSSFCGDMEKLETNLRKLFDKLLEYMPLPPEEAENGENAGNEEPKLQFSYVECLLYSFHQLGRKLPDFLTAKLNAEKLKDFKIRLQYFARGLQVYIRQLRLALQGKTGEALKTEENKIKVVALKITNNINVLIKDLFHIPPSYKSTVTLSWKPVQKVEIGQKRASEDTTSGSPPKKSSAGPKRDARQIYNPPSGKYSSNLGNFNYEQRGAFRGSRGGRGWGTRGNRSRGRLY
# UniProt P08758: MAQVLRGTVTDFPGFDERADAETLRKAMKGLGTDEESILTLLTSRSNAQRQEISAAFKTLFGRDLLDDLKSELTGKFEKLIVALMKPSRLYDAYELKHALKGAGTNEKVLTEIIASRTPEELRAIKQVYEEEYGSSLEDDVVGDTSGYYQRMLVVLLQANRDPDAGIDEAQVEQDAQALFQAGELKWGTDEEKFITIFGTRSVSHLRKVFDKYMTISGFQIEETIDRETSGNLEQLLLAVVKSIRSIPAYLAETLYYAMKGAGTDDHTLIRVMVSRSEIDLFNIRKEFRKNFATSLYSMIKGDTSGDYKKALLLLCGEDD
# UniProt P84085: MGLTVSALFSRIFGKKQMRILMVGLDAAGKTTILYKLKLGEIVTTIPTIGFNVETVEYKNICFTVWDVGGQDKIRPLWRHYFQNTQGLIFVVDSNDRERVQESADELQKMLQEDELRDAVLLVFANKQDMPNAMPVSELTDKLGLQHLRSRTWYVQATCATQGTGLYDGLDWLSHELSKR
# UniProt Q9Y6D6: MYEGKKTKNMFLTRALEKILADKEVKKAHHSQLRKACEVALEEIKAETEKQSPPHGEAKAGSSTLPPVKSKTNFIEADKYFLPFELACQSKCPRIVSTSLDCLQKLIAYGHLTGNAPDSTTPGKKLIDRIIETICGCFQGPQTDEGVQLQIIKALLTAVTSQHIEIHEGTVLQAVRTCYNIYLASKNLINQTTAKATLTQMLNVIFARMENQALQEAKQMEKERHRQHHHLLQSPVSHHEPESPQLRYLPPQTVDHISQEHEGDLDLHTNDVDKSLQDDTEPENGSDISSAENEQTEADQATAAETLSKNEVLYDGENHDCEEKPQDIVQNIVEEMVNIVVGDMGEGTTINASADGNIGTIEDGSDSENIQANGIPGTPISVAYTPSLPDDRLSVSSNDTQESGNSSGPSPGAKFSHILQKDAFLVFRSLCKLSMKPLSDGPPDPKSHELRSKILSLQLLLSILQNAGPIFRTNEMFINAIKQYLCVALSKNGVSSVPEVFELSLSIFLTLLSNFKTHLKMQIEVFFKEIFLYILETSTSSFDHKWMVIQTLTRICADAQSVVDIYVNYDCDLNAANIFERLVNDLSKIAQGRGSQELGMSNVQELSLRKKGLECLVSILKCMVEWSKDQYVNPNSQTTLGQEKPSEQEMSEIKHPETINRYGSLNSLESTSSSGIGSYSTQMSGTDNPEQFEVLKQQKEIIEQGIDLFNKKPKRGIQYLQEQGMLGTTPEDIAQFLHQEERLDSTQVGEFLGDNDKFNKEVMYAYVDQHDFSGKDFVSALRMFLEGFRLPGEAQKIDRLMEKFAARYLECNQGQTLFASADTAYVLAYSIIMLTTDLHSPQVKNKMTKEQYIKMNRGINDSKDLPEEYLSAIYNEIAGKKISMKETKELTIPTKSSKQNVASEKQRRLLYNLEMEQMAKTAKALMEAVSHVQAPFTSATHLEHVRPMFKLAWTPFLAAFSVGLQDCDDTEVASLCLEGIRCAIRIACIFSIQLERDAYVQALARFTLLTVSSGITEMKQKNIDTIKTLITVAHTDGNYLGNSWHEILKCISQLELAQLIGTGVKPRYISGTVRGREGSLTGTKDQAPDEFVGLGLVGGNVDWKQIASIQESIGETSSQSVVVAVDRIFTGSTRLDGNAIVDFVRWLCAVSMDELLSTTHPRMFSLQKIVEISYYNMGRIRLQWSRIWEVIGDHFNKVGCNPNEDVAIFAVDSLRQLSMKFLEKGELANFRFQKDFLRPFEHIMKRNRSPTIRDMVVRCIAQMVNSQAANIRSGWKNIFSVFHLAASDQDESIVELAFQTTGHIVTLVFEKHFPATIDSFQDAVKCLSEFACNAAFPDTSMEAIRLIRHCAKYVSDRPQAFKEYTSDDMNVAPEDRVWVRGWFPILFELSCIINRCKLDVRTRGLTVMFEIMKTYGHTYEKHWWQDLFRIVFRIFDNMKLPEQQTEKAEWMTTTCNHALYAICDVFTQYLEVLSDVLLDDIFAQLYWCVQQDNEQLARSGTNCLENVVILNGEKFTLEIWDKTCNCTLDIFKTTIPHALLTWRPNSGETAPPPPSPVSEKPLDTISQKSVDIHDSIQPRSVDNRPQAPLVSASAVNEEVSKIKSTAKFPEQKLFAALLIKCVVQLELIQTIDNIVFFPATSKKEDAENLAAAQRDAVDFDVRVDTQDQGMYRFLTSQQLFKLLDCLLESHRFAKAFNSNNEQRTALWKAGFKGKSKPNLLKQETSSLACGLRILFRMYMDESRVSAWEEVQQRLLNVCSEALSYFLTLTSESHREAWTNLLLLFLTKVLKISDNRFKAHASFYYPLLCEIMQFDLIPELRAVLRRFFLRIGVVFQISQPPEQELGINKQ
# UniProt P02749: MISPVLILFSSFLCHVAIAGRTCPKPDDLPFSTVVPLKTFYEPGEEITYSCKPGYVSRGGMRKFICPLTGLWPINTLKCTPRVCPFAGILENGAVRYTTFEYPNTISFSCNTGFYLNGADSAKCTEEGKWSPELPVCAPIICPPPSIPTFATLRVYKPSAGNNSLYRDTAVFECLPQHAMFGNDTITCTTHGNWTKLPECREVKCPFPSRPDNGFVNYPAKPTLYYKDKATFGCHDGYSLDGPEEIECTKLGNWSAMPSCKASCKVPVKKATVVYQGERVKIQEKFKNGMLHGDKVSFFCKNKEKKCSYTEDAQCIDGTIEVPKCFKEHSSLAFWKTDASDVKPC
# UniProt P07355, whole entry, looked up: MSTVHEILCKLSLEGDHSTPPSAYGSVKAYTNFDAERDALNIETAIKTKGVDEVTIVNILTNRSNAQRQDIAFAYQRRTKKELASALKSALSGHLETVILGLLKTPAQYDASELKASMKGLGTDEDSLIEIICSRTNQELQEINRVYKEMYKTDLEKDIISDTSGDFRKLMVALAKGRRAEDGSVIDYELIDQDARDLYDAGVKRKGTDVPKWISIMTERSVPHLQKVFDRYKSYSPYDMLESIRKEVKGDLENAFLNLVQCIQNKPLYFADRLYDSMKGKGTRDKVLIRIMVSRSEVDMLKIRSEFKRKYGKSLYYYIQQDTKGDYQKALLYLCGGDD
# Compound: CC1=C(SC2=C1C(=N[C@H](C3=NN=C(N32)C)CC(=O)N)C4=CC=C(C=C4)Cl)C
# Assay: log2 fold change, soluble protein after heating vs DMSO (PISA); higher = thermal stabilisation; K562 cells, 10 uM, 30 min; active = over 0.2 and 3.5 SD of the protein, either way, in both replicates (recomputed)
# In short: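 Aliquots of K562 cells (2×10^6 cells/mL) treated with 10 μM compound for 30 min were heated for 3 min over 48°C-58°C. After pooling and extraction in PBS with 0.5% NP-40 at 4°C, soluble protein from a 21,000xg, 90 min spin was quantified by TMTpro 16plex LC-MS/MS with channel sums equalised. Thermal stability is expressed against control samples, from duplicates, as a log2 fold change.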
row,Target,log2 fold change
1,AP4E1 (UniProt Q9UPM8),inactive: 0.081
2,ANXA7 (UniProt P20073),inactive: 0.028
3,AP1M1 (UniProt Q9BXS5),inactive: 0.017
4,AP2A2 isoform 2 (UniProt O94973),inactive: -0.02
5,ARAF (UniProt P10398),inactive: -0.003
6,ANO10 (UniProt Q9NW15),inactive: 0.06
7,ARFGAP1 (UniProt Q8N6T3),inactive: 0.077
8,ANTKMT (UniProt Q9BQD7),inactive: 0.057
9,AP5M1 (UniProt Q9H0R1),inactive: -0.077
10,AP2M1 (UniProt C9JTK4),inactive: 0.083
11,ARHGAP17 (UniProt Q68EM7),inactive: -0.122
12,ANTXR2 isoform 4 (UniProt P58335),inactive: 0.069
13,API5 isoform 2 (UniProt Q9BZZ5),inactive: 0.036
14,ANO6 isoform 2 (UniProt Q4KMQ2),inactive: 0.015
15,AP1B1 (UniProt Q10567),inactive: 0.044
16,ANXA5 (UniProt P08758),inactive: 0.04
17,ARF5 (UniProt P84085),inactive: 0.03
18,ARFGEF1 (UniProt Q9Y6D6),inactive: 0.034
19,APOC1 (UniProt P02654),inactive: 0.185
20,AP1S1 (UniProt P61966),inactive: 0.063
21,ANP32B (UniProt Q92688),inactive: 0.04
22,APOH (UniProt P02749),inactive: -0.106
23,ANXA2 isoform 2 (UniProt P07355),inactive: 0.027

# Given as tab-separated lines: part of the list above
row	Target	log2 fold change
20	AP1S1 (UniProt P61966)	inactive: 0.063
21	ANP32B (UniProt Q92688)	inactive: 0.04
